Laboratory results: the supplement of paper PMC11006884
Only a part is listed here, and it is no random draw.

By UniProt entry, the sequences of proteins in these tests, tags left out. Where a name states a change or a piece, a line headed by the entry shows the natural chain unless it says otherwise.
UniProt Q9BW83: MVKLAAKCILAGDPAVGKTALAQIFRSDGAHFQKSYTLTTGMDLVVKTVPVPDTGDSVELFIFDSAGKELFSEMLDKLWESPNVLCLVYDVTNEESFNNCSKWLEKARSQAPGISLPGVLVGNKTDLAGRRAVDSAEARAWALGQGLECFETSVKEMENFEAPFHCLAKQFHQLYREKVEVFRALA
UniProt Q9GZN1, whole entry, looked up: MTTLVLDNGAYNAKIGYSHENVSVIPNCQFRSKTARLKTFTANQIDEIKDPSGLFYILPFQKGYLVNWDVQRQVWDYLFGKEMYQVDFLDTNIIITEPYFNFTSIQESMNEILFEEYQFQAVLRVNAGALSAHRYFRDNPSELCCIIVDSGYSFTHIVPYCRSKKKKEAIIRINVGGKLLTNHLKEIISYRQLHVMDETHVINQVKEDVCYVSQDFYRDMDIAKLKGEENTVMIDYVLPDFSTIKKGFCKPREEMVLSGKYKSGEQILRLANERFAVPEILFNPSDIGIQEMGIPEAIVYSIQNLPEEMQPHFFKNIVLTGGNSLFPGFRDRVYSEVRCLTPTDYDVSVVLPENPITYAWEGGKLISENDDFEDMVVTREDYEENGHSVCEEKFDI
UniProt Q9BV57: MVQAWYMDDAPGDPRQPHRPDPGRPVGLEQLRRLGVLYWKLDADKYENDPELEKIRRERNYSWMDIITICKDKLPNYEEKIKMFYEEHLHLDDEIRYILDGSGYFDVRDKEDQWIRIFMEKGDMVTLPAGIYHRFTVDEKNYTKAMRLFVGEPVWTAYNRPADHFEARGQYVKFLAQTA
UniProt Q9BTE3: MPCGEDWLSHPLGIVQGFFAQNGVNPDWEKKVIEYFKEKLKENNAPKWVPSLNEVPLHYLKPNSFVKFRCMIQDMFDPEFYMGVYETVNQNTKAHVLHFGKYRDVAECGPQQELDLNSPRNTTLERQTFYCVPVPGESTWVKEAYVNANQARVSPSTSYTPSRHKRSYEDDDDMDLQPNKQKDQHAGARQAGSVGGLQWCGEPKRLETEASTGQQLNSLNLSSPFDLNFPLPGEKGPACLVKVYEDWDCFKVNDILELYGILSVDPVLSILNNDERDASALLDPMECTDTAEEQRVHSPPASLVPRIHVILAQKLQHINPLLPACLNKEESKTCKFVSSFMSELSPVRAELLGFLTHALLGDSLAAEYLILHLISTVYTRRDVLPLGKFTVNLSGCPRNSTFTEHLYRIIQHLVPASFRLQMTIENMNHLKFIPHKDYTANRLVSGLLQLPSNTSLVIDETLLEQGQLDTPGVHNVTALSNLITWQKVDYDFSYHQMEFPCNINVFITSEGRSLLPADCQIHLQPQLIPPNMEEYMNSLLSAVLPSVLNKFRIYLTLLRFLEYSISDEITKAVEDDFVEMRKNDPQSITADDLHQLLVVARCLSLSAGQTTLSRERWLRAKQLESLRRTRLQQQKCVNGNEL
UniProt Q9BU76: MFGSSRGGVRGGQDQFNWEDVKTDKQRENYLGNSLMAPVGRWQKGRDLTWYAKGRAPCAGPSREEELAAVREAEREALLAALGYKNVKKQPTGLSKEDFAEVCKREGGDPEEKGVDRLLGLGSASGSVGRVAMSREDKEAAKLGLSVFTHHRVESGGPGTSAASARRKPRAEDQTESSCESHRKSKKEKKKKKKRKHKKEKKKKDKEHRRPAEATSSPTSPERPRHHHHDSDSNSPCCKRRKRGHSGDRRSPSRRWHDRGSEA
UniProt Q9H0A0: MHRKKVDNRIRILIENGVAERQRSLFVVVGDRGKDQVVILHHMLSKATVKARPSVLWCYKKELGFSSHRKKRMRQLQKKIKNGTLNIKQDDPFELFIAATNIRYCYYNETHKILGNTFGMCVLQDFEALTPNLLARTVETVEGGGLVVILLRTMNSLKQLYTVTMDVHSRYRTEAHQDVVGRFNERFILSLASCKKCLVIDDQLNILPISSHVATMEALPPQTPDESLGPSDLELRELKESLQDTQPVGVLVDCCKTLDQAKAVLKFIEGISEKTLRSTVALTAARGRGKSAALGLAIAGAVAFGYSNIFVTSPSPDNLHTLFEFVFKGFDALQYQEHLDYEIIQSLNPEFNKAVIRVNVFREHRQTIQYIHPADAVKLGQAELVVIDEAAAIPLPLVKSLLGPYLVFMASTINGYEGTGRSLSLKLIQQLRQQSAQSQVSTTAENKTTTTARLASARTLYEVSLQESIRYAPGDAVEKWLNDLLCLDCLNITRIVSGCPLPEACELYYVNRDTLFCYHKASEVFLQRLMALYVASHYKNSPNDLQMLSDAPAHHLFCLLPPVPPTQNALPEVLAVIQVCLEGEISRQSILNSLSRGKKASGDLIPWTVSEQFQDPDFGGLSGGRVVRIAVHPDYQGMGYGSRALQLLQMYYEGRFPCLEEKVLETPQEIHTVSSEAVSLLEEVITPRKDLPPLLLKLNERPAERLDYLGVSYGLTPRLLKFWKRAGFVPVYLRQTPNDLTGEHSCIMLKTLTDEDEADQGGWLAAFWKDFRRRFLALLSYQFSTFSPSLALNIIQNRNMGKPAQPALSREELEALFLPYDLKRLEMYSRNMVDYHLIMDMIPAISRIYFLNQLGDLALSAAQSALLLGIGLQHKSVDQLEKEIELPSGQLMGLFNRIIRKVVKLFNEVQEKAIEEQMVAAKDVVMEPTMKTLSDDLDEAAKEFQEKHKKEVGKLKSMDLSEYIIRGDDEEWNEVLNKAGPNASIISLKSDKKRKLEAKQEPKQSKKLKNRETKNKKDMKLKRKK
UniProt Q9BXF6: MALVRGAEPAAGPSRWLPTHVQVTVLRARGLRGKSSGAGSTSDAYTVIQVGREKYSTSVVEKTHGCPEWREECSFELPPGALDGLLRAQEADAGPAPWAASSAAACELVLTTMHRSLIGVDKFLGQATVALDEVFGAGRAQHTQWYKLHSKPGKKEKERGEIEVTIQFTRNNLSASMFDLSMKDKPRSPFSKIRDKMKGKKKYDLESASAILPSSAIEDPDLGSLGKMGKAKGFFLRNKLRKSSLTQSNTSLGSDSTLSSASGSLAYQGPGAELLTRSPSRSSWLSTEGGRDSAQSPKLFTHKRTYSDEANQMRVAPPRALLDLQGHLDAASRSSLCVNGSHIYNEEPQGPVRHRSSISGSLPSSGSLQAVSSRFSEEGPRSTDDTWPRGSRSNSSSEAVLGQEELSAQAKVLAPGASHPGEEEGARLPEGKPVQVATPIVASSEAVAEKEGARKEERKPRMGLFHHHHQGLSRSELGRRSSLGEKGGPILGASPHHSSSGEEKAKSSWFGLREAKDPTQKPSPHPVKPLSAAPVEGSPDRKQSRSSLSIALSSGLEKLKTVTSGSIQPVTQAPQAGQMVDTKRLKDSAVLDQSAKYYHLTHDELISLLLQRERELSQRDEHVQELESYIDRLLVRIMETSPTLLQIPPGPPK
UniProt Q9BUK6: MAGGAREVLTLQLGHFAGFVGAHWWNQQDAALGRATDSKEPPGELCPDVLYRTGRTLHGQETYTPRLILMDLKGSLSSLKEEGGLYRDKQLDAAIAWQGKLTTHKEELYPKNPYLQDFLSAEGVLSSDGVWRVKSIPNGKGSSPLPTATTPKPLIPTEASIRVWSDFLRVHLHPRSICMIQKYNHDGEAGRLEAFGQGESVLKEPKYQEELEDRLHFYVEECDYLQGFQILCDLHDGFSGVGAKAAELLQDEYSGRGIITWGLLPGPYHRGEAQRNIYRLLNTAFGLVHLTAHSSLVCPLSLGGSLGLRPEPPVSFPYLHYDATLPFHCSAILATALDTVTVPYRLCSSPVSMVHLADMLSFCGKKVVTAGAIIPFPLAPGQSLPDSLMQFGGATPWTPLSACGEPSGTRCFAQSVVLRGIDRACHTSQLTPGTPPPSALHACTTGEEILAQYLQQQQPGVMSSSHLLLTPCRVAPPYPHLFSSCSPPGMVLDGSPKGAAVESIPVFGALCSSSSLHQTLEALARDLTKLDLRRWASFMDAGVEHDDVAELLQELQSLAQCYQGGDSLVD
UniProt Q9BSJ5: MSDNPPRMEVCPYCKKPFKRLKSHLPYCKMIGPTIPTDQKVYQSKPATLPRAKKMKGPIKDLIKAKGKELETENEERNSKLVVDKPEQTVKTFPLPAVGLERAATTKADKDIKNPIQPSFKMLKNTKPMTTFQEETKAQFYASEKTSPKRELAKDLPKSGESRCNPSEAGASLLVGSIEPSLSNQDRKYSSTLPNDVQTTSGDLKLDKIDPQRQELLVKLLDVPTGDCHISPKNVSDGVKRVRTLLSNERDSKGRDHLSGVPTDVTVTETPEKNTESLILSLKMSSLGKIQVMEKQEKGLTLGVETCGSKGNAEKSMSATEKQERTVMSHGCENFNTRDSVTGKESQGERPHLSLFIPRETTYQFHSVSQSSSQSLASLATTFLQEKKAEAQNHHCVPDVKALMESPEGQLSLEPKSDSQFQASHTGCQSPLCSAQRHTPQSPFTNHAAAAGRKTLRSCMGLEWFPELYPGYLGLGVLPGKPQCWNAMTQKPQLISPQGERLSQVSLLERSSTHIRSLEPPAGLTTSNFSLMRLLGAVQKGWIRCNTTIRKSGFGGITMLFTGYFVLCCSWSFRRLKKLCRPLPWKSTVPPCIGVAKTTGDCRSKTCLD
UniProt Q9BSH5: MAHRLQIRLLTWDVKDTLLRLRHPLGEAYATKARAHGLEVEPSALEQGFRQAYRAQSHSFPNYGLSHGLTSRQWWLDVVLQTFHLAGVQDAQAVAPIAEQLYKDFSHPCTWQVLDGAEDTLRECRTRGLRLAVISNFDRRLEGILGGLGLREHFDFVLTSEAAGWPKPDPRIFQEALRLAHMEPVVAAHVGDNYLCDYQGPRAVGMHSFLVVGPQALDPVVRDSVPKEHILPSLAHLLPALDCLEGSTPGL
UniProt Q9BZQ6: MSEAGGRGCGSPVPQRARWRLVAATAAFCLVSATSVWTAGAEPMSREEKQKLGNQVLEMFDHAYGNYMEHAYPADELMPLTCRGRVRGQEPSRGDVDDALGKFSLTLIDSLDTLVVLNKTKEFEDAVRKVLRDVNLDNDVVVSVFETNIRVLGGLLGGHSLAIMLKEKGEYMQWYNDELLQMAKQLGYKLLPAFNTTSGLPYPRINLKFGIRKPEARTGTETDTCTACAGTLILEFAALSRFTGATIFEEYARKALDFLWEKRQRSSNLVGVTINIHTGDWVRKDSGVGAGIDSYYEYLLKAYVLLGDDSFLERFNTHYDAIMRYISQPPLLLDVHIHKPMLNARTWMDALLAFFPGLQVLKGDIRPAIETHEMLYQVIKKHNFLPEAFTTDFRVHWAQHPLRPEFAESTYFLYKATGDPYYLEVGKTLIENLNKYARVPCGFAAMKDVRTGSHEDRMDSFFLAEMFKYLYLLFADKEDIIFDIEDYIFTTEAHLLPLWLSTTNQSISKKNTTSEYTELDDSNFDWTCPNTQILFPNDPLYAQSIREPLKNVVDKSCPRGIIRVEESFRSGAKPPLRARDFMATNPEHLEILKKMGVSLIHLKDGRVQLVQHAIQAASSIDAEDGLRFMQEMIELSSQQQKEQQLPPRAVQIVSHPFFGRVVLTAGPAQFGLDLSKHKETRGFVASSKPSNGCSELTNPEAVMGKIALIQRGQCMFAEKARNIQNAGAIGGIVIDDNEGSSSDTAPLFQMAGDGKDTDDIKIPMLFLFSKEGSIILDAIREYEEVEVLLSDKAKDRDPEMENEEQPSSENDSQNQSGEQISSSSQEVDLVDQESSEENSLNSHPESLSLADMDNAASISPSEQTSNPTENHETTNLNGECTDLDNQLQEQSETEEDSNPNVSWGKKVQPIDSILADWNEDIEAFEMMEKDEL
UniProt Q9BV68: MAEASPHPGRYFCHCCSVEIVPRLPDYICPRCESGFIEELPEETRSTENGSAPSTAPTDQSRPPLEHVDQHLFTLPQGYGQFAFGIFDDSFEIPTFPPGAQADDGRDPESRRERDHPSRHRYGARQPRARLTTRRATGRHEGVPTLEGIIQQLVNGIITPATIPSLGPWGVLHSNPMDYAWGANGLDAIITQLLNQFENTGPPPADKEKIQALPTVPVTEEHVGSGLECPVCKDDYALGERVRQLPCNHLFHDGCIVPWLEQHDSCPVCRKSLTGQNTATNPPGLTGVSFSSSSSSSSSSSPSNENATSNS
UniProt Q9BVP2: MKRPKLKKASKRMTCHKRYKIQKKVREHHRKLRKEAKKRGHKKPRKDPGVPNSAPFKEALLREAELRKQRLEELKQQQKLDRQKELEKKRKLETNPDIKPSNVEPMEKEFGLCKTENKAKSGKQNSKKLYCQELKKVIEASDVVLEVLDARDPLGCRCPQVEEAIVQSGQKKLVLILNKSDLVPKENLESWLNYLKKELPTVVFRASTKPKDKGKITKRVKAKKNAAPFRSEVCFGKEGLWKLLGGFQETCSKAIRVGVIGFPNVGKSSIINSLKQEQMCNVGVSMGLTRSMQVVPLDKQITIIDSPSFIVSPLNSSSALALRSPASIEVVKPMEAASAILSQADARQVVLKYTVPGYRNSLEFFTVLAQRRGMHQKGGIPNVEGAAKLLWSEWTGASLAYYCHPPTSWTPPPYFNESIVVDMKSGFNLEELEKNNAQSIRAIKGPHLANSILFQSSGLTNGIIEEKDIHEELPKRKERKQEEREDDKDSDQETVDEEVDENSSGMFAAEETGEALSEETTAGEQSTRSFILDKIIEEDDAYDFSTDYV

compound: COC(=O)C#Cc1ccccc1 [methyl 3-phenylpropiolate]; experiment: log2 ratio of iodoacetamide-alkyne labeling of the cysteine site, DMSO over compound (competition); higher = stronger covalent engagement of the cysteine by the compound, active = 1 or more; details: 500 µM; treatment time 1 h; system: HEK293T cell lysate
Outline: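 After 1 h at ambient temperature with vehicle or electrophile (500 µM), HEK293T lysate (2 mg/mL) was labelled for 1 h with iodoacetamide alkyne and clicked to sCIP-TMT reagents. Pooled samples were trypsin-digested overnight at 37 °C, streptavidin-enriched, acid-eluted and analysed by Orbitrap Eclipse LC-MS/MS with FAIMS, then quantified in FragPipe over three replicates with duplicate channels. A cysteine's log2 competition ratio is its mean control-channel over mean compound-channel reporter intensity. Cysteines quantified in only one replicate were not included.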

log2 ratio of iodoacetamide-alkyne labeling, inactive:
SLC4A1AP C125 (UniProt Q9BWU0) 0.196
CSTF2T C441 (UniProt Q9H0L4) 0.733
UniProt Q9BW83_C149 -0.293
ACTR6 C339 (UniProt Q9GZN1) 0.248
ADI1 C70 (UniProt Q9BV57) 0.0326
UniProt Q9BTE3_C108 0.16
UBE2O C182 (UniProt Q9C0C9) 0.354
ADPGK C40 (UniProt Q9BRR6) 0.1
UniProt Q9BYG3_C237 0.515
UniProt Q9BU76_C58 0.972
NSD3 C1184 (UniProt Q9BZ95) -0.122
MRPL37 C268 (UniProt Q9BZE1) 0.221
SETD2 C714 (UniProt Q9BYW2) 0.797
NAT10 C658 (UniProt Q9H0A0) -0.0642
UniProt Q9BSJ8_C522 0.823
XRN2 C62 (UniProt Q9H0D6) -0.1
RAB11FIP5 C337 (UniProt Q9BXF6) 0.653
HDAC8 C153 (UniProt Q9BY41) 0.132
UniProt Q9BXJ9_C322 -0.0777
MSTO1 C485 (UniProt Q9BUK6) 0.318
ILKAP C221 (UniProt Q9H0C8) 0.46
C17orf80 C164 (UniProt Q9BSJ5) 0.161
HDHD3 C109 (UniProt Q9BSH5) 0.973
LSG1 C455 (UniProt Q9H089) -0.0915
UBE2O C400 (UniProt Q9C0C9) -0.416
UniProt Q9BQI3_C466 0.178
KIFC1 C509 (UniProt Q9BW19) 0.348
EDEM3 C82 (UniProt Q9BZQ6) 0.448
UniProt Q9BXP5_C412 0.176
PUS7L C267 (UniProt Q9H0K6) 0.462
UNK C383 (UniProt Q9C0B0) 0.721
MRPL37 C153 (UniProt Q9BZE1) 0.187
RNF126 C15 (UniProt Q9BV68) 0.119
TNKS1BP1 C1114 (UniProt Q9C0C2) 0.316
GINS3 C188 (UniProt Q9BRX5) 0.255
GNL3 C234 (UniProt Q9BVP2) 0.259
TBCD C1192 (UniProt Q9BTW9) 0.0257
ACAT2 C360 (UniProt Q9BWD1) -0.0247

Quoted at random: three records from the list
log2 ratio of iodoacetamide-alkyne labeling, inactive:
C17orf80 C164 (UniProt Q9BSJ5) 0.161
HDHD3 C109 (UniProt Q9BSH5) 0.973
ACTR6 C339 (UniProt Q9GZN1) 0.248
